Compound in this assay: Nc1ncnc2c1ncn2[C@@H]1O[C@H](COP(=O)(O)OP(=O)(O)OP(=O)(O)O)[C@@H](O)[C@H]1O [adenosine triphosphate]
Put plainly: NP40-soluble protein abundance relative to vehicle (solubility fold change) (ratio); higher = more soluble protein in presence of ATP. The method in brief:
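Jurkat crude lysate prepared with a Dounce homogeniser was treated at eight concentrations spanning 0.1 to 10 mM, 10 min at room temperature then 3 min at 37 °C. Solubilisation with 0.8% NP40 and benzonase and ultracentrifugation preceded TMT labelling of the supernatant for LC-MS/MS. Fold change against the detergent-processed vehicle was determined per replicate from vsn-normalised intensities, across three independent experiments.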

Amino acid sequences for entries named in this document (tags omitted). A change or cut given only in a name is not applied to a line headed by its entry.
UniProt Q9NRG4: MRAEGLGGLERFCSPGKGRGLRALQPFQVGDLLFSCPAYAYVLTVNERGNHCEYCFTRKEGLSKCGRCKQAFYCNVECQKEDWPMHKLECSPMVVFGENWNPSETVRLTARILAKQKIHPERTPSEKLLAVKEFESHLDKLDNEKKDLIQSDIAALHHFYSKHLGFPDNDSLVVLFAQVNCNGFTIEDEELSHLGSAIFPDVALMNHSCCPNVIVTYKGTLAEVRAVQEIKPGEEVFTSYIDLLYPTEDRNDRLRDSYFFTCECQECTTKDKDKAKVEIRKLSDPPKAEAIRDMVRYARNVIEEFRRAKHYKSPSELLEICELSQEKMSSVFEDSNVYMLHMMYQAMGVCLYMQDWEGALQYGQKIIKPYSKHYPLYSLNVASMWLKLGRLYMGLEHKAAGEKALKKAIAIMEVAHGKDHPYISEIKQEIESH
UniProt Q9P0B6: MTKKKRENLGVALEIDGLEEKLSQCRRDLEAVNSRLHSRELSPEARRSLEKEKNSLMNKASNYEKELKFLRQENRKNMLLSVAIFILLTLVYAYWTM
UniProt Q9NX24: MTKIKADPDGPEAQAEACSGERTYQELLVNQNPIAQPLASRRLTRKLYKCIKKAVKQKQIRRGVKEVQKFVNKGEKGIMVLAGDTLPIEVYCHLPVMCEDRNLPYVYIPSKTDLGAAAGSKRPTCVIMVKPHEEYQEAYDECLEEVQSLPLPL
UniProt Q9P021, whole entry: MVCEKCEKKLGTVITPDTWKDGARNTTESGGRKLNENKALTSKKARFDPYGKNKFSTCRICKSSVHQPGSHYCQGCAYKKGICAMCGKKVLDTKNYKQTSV
UniProt Q9NSC5: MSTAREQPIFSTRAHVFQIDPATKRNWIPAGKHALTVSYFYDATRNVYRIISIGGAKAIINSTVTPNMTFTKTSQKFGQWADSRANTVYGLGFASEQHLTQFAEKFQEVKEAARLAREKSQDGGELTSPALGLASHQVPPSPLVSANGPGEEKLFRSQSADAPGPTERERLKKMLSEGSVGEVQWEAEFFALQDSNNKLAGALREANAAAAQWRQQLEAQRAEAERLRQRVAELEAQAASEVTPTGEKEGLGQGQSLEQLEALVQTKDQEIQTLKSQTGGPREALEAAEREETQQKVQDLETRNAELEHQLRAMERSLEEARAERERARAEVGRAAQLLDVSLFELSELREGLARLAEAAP
UniProt Q9P0U3: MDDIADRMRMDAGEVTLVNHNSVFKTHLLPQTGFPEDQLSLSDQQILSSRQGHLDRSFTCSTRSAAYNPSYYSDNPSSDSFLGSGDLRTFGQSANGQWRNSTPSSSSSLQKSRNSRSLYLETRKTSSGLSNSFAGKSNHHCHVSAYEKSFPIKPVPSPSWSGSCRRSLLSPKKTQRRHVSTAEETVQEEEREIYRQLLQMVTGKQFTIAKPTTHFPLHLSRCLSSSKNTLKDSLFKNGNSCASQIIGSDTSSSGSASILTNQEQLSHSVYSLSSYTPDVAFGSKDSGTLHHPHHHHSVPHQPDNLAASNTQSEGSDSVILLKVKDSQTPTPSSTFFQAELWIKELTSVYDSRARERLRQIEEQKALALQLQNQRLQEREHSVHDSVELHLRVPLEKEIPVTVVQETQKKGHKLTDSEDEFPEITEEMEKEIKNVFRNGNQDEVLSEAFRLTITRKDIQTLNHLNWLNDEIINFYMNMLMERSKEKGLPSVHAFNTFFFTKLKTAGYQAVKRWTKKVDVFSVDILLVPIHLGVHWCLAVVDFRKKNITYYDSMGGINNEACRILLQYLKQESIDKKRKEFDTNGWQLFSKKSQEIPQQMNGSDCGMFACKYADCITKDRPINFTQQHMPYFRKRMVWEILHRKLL
UniProt Q9NPL8: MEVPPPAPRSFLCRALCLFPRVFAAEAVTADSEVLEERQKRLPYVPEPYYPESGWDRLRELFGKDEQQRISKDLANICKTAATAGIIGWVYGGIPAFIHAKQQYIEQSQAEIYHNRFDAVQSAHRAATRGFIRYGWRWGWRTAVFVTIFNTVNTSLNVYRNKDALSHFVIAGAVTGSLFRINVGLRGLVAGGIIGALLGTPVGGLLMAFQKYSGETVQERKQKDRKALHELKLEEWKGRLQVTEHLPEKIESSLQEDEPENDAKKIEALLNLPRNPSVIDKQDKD
UniProt Q9NZB8: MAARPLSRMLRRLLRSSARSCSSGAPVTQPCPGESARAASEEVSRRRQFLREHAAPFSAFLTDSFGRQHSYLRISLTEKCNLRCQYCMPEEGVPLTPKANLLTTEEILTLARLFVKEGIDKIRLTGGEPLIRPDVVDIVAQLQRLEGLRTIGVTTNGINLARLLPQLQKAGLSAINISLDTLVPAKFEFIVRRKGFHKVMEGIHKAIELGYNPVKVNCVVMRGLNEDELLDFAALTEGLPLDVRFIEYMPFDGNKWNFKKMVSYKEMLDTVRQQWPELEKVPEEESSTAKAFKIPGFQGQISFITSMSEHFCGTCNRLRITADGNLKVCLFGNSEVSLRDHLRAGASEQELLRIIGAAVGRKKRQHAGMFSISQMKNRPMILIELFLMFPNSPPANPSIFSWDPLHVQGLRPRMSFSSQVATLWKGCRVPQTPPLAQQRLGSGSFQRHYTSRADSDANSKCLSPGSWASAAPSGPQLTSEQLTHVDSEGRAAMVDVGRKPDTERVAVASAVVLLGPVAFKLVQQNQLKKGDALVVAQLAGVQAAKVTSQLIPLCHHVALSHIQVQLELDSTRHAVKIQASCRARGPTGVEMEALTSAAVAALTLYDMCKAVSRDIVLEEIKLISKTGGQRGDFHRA
UniProt Q9NQS1: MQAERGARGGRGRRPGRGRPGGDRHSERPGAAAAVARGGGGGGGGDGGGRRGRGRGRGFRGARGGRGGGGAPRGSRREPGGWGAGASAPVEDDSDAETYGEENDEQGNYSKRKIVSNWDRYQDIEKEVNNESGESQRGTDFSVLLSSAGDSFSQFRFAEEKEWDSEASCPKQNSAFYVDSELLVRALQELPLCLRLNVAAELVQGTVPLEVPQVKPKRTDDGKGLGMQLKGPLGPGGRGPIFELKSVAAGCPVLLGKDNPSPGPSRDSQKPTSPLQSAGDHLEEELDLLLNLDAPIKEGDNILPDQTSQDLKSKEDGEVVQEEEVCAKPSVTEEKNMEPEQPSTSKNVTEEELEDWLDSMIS
UniProt Q9NX46: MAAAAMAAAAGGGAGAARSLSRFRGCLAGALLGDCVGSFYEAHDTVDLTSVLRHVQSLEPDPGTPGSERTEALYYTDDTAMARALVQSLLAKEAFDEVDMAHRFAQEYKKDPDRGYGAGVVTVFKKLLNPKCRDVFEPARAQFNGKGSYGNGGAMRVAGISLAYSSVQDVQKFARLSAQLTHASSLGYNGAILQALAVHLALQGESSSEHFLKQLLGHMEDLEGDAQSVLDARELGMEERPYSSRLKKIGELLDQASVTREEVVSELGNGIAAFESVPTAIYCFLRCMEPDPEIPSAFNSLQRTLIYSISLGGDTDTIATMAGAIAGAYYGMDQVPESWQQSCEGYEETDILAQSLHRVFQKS
UniProt Q9P0N9: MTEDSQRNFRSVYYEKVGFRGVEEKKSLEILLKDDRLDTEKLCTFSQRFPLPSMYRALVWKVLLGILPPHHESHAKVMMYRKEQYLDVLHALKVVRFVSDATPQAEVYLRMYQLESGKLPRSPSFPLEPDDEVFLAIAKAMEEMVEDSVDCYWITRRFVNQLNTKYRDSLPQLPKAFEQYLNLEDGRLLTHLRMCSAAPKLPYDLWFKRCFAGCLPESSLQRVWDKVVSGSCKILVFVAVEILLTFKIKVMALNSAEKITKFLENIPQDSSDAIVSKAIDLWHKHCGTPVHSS
UniProt Q9NQ48: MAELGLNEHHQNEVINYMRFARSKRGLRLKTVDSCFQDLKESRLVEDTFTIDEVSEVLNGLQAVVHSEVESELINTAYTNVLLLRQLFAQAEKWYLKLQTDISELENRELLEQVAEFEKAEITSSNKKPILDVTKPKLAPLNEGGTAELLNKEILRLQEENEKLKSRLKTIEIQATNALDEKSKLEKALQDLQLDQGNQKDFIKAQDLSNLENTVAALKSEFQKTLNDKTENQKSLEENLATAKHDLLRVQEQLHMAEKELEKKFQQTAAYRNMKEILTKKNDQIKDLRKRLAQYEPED
UniProt Q9NYZ3: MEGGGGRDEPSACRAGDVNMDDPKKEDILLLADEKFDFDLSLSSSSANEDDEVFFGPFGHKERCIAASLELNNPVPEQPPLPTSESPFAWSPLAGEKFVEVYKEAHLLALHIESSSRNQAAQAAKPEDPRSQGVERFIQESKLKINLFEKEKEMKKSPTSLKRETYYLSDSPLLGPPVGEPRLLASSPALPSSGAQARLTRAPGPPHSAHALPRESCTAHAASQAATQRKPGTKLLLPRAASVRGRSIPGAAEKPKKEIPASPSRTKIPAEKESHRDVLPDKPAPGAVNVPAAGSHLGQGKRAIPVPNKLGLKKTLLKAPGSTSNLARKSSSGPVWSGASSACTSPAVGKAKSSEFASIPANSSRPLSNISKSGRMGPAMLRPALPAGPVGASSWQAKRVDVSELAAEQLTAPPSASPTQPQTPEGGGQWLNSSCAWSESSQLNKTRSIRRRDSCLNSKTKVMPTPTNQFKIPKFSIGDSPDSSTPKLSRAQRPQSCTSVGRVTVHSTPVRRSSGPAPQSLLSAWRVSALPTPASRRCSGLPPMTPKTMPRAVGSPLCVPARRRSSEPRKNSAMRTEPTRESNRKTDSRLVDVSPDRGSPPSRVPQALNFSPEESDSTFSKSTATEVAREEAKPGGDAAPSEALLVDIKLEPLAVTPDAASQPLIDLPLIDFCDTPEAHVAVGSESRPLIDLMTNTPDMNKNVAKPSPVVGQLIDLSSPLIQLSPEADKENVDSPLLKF
UniProt Q9P0R6: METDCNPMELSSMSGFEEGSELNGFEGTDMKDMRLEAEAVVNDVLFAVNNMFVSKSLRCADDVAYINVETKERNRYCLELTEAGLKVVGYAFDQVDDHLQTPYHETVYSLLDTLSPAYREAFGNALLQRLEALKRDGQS
UniProt Q9NYJ8: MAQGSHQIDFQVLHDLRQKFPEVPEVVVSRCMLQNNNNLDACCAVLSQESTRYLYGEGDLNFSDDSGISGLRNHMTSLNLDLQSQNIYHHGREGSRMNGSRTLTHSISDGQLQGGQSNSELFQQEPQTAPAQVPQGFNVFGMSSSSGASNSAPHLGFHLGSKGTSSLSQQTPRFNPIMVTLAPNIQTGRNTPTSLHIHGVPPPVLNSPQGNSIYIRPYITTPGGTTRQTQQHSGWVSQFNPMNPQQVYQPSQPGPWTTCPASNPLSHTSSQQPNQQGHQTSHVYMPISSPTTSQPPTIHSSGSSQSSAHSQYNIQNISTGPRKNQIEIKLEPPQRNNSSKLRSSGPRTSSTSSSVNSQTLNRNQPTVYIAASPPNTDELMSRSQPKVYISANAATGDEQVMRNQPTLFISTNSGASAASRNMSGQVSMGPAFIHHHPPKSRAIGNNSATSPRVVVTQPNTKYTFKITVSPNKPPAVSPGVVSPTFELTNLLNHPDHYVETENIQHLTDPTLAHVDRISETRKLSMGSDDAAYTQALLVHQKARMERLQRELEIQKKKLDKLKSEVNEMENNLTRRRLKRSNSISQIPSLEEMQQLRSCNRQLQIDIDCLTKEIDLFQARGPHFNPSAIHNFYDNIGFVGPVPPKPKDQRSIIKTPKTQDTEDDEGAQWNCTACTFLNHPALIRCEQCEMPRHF
UniProt Q9NXA8: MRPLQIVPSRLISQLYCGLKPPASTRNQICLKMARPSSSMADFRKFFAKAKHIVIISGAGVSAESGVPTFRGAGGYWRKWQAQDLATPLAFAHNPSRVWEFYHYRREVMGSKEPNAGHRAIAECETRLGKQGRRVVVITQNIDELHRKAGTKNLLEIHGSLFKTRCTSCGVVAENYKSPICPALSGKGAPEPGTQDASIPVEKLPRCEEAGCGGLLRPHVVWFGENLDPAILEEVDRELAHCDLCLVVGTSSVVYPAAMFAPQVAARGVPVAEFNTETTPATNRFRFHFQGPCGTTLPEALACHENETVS
UniProt Q9NUG6, whole entry: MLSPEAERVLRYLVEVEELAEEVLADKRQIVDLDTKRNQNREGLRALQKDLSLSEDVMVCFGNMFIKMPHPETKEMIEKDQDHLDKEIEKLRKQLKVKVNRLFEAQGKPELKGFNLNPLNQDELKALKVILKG
UniProt Q9NXN4: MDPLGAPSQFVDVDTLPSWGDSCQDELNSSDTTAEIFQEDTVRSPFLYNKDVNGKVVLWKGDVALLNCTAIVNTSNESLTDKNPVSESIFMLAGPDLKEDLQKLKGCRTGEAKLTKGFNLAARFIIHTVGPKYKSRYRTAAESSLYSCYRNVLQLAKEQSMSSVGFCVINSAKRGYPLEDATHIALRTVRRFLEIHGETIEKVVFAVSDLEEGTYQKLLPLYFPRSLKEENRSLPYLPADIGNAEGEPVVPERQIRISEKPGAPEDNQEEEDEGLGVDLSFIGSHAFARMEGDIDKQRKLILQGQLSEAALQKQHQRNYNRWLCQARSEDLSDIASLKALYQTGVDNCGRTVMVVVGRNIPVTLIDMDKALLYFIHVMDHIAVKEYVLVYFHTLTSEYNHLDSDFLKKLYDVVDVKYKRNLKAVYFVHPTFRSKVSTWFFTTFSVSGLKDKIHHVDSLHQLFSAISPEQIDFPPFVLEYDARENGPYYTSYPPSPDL

± gives the standard deviation of the averaged measurements. This is a selection; strong and weak results do not stand in their true shares. Small differences around the control level are noise.

Turning to SMYD2 (UniProt Q9NRG4), the NP40-soluble protein abundance came out at 1.1 ± 0.099 (concentration: 0.1mM) and 1.12 ± 0.1 (concentration: 0.5mM).

For the target EIF2B3 (UniProt Q9NR50), the NP40-soluble protein abundance was 1.04 ± 0.052 (concentration: 0.1mM) and 1.02 ± 0.035 (concentration: 0.5mM).

For UniProt Q9P0B6, the NP40-soluble protein abundance by setting is: (concentration: 0.1mM) 0.78 ± 0.15; (concentration: 0.5mM) 0.788 ± 0.28.

UniProt Q9NUP7: the NP40-soluble protein abundance (concentration: 0.1mM) worked out at 1.04 ± 0.034 and the NP40-soluble protein abundance (concentration: 0.5mM) was found to be 1.04 ± 0.082.

Take DMAP1 (UniProt Q9NPF5): the NP40-soluble protein abundance runs as follows: (concentration: 0.1mM) 0.946 ± 0.038; (concentration: 0.5mM) 0.985 ± 0.037.

Regarding UniProt Q9NZQ3 and related entries, the NP40-soluble protein abundance reads like this: (concentration: 0.1mM) 1.04 ± 0.062; (concentration: 0.5mM) 1.07 ± 0.023.

As for NHP2 (UniProt Q9NX24), the NP40-soluble protein abundance runs as follows: (concentration: 0.1mM) 0.984 ± 0.054; (concentration: 0.5mM) 1.04 ± 0.15.

On to CRIPT (UniProt Q9P021), for which the NP40-soluble protein abundance reads like this: (concentration: 0.1mM) 1.04 ± 0.16; (concentration: 0.5mM) 1.06 ± 0.14.

For the target HOMER3 (UniProt Q9NSC5), the NP40-soluble protein abundance is, setting by setting: (concentration: 0.1mM) 0.989 ± 0.1; (concentration: 0.5mM) 0.984 ± 0.041.

In the case of UniProt Q9P0U3 and related entries, the NP40-soluble protein abundance by setting is: (concentration: 0.1mM) 1.03 ± 0.0091; (concentration: 0.5mM) 1 ± 0.068.

Take UniProt Q9NPL8: the NP40-soluble protein abundance runs as follows: (concentration: 0.1mM) 0.989 ± 0.016; (concentration: 0.5mM) 1.01 ± 0.051.

As for UniProt Q9NZB8 and related entries, the NP40-soluble protein abundance was found to be 1.02 ± 0.038 (concentration: 0.1mM) and 0.982 ± 0.027 (concentration: 0.5mM).

As for AVEN (UniProt Q9NQS1), the NP40-soluble protein abundance runs as follows: (concentration: 0.1mM) 0.849 ± 0.029; (concentration: 0.5mM) 0.777 ± 0.027.

For ADPRHL2 (UniProt Q9NX46), the NP40-soluble protein abundance (concentration: 0.1mM) was 0.9938 ± 0.009 and the NP40-soluble protein abundance (concentration: 0.5mM) was found to be 0.947 ± 0.022.

As for GGA3 (UniProt Q9NZ52), the NP40-soluble protein abundance reads like this: (concentration: 0.1mM) 1.008 ± 0.0056; (concentration: 0.5mM) 1 ± 0.039.

On to UniProt Q9P0N9 and related entries, for which the NP40-soluble protein abundance by setting is: (concentration: 0.1mM) 0.974 ± 0.024; (concentration: 0.5mM) 0.98 ± 0.052.

For LZTFL1 (UniProt Q9NQ48), the NP40-soluble protein abundance (concentration: 0.1mM) came out at 0.931 ± 0.098 and the NP40-soluble protein abundance (concentration: 0.5mM) was found to be 0.875 ± 0.11.

With GTSE1 (UniProt Q9NYZ3), the NP40-soluble protein abundance stood at 1.04 ± 0.1 (concentration: 0.1mM) and 0.939 ± 0.11 (concentration: 0.5mM).

GSKIP (UniProt Q9P0R6): the NP40-soluble protein abundance was 0.934 ± 0.08 (concentration: 0.1mM) and 0.835 ± 0.2 (concentration: 0.5mM).

For UniProt Q9NYJ8, the NP40-soluble protein abundance by setting is: (concentration: 0.1mM) 0.912 ± 0.063; (concentration: 0.5mM) 0.813 ± 0.041.

Consider SIRT5 (UniProt Q9NXA8), for which the NP40-soluble protein abundance runs as follows: (concentration: 0.1mM) 1.01 ± 0.073; (concentration: 0.5mM) 0.988 ± 0.036.

On to PDRG1 (UniProt Q9NUG6), for which the NP40-soluble protein abundance by setting is: (concentration: 0.1mM) 0.918 ± 0.097; (concentration: 0.5mM) 0.956 ± 0.077.

On to UniProt Q9NXN4 and related entries, for which the NP40-soluble protein abundance runs as follows: (concentration: 0.1mM) 0.991 ± 0.079; (concentration: 0.5mM) 0.97 ± 0.048.

Source of the values: the supplement of paper PMC6411743.
